Results are given in words; binding and its absence hold for the method and conditions named. In cells and extracts the contact can be indirect. Some binding calls cover weakened binding; strength is not graded here.
Legend:
Spt6-TAP (S. cerevisiae) = biological target: T1, Spt6-TAP (S. cerevisiae) (UniProt P23615); assay: pull-down; TAP-tag pull-down: yeast whole cell extract (5 mg protein; 20 mM HEPES pH 7.4, sodium acetate, 2 mM magnesium acetate, 10 mM EDTA, 10 % glycerol, 1 mM DTT) with IgG sepharose, 4 °C, 3.5 h; washed twice with lysis buffer with 400 mM sodium chloride; immunoblot for histone H3 and TAP
T1 sequence: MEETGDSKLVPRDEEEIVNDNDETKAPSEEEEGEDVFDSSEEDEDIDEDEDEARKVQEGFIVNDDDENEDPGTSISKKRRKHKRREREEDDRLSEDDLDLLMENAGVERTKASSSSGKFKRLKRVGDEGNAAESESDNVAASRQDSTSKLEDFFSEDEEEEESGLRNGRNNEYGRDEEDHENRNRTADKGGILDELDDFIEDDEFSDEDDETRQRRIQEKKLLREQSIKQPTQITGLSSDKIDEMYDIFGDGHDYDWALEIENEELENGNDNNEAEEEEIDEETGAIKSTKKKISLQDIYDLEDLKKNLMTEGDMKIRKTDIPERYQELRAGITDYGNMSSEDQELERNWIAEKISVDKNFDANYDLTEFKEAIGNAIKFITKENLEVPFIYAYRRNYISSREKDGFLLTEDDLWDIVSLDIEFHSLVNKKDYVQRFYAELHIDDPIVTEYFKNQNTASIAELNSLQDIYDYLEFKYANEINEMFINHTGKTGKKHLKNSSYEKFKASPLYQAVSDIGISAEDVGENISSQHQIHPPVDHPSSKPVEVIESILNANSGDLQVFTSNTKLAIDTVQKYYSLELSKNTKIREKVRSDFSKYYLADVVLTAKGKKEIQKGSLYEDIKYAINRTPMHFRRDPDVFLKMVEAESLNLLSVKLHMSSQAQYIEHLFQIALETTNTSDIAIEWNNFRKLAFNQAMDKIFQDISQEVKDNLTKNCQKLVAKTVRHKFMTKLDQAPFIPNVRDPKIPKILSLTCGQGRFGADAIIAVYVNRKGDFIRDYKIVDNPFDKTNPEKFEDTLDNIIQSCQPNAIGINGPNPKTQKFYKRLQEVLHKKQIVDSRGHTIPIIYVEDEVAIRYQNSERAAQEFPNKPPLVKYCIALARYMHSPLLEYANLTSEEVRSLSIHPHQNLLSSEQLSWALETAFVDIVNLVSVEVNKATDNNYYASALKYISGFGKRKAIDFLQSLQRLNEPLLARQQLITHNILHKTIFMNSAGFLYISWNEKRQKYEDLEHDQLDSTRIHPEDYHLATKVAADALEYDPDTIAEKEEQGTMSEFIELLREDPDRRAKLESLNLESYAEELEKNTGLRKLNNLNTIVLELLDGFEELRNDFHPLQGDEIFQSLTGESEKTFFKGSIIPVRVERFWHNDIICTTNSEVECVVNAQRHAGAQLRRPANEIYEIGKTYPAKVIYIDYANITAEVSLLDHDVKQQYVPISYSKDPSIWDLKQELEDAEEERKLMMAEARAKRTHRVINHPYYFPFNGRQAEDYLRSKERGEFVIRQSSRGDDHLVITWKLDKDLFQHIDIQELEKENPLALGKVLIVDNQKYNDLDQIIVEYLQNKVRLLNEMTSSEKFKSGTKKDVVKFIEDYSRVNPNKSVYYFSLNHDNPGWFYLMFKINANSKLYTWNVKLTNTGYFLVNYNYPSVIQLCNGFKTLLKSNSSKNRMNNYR

Spt2-TAP (S. cerevisiae) = biological target: T2, Spt2-TAP (S. cerevisiae) (UniProt P06843); assay: as above
T2 sequence: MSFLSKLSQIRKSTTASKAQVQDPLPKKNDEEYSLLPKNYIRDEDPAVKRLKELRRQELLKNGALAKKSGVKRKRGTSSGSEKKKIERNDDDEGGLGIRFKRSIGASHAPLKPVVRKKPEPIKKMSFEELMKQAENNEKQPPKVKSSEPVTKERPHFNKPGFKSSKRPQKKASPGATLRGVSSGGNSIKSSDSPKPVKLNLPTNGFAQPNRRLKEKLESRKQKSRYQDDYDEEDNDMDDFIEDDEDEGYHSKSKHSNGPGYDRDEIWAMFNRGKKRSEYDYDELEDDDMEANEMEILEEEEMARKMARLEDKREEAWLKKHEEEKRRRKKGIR

histone H3 K122A (from UniProt P61830 1-136)
binding (Spt6-TAP (S. cerevisiae)): binds
binding (Spt2-TAP (S. cerevisiae)): binds

histone H3 R49A (from UniProt P61830 1-136)
binding (Spt6-TAP (S. cerevisiae)): binds
binding (Spt2-TAP (S. cerevisiae)): binds

histone H3 (WT synthetic histone allele, HHTS) (from UniProt P61830 1-136)
binding (Spt6-TAP (S. cerevisiae)): binds
binding (Spt2-TAP (S. cerevisiae)): binds

histone H3 Q120A (from UniProt P61830 1-136)
binding (Spt6-TAP (S. cerevisiae)): binds
binding (Spt2-TAP (S. cerevisiae)): binds

Source: publication PMC4851828
